In publication PMC7975690 one finds binding data, which are given here for six molecules.

Sequences of proteins named here, by UniProt entry; tags and fusion partners are left off. Residues count along the entry.
UniProt P35222: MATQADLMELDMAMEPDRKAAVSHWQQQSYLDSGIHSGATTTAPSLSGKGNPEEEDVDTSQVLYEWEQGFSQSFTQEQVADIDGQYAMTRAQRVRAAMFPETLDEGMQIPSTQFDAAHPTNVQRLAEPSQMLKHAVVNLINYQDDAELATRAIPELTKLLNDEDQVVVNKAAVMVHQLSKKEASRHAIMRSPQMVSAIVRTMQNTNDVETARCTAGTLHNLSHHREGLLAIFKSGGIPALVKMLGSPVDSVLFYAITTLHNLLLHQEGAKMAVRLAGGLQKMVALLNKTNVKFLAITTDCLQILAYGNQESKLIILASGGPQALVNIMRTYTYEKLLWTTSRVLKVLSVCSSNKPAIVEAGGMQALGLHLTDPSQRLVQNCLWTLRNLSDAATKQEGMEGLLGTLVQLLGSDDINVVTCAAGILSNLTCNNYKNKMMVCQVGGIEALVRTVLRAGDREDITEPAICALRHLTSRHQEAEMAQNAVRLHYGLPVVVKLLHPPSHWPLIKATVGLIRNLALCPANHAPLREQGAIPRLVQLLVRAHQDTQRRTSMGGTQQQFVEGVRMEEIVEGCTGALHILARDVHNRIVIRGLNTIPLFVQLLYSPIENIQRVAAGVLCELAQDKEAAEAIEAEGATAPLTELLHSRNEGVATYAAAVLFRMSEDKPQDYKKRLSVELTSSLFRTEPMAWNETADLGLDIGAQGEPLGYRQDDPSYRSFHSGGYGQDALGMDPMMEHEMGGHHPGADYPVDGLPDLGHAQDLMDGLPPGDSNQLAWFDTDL
UniProt Q12888: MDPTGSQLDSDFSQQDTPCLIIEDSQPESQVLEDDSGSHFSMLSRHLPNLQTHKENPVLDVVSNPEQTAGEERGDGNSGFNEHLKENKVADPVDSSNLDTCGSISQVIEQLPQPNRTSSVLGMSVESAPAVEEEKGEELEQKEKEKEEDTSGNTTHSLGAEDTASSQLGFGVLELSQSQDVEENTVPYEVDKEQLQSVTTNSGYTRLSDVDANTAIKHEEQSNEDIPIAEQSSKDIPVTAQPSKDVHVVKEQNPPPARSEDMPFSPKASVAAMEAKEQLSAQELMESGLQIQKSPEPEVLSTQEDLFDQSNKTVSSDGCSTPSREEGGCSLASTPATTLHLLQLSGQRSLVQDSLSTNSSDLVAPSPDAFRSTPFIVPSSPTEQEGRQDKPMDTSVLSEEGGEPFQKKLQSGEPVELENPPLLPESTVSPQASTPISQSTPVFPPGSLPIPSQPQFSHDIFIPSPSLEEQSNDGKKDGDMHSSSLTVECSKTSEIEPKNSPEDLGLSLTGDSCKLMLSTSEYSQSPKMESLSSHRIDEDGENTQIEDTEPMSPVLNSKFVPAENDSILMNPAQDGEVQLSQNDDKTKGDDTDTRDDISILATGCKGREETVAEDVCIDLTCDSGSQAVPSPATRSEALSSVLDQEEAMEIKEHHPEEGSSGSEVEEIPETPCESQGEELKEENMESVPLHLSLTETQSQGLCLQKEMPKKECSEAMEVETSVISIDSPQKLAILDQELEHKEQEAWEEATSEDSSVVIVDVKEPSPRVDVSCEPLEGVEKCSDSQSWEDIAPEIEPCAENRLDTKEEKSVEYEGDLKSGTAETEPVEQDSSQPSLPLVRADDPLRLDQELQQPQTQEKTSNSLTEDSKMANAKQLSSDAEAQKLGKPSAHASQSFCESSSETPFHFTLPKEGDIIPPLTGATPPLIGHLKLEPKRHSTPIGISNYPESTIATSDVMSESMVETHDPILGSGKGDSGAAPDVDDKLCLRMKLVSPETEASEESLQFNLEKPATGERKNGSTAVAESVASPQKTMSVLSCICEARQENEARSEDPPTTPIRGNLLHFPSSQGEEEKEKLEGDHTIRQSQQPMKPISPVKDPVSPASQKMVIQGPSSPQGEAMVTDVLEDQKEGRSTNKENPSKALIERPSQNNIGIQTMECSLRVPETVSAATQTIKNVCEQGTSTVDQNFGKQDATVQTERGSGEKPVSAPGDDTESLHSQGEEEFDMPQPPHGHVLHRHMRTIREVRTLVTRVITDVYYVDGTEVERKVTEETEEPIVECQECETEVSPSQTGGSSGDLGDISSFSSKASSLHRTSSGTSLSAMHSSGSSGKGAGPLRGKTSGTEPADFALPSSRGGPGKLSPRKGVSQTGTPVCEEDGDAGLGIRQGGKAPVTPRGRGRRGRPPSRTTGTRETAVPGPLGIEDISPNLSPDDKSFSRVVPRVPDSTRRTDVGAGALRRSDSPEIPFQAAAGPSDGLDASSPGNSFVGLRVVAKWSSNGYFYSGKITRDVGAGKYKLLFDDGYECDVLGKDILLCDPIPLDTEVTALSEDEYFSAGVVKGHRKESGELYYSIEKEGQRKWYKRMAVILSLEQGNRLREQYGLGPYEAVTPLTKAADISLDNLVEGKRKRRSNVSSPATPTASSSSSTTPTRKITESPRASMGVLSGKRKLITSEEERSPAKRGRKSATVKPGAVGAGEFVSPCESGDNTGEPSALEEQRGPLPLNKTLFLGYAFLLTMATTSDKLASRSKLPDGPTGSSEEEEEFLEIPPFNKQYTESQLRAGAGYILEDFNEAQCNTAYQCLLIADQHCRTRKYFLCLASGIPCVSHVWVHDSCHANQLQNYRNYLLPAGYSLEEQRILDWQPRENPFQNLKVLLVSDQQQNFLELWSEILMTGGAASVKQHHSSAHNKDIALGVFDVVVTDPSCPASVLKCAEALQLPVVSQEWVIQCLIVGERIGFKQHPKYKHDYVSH
UniProt P40199, residues 35-320: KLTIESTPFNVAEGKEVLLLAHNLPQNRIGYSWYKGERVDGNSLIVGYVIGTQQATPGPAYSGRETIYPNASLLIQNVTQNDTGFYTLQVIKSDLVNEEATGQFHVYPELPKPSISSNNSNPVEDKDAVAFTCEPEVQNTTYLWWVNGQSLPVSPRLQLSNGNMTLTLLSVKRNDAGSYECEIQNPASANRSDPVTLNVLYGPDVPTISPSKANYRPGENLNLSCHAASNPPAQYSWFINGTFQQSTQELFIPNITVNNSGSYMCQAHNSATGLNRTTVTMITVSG
UniProt O75197, residues 32-1615: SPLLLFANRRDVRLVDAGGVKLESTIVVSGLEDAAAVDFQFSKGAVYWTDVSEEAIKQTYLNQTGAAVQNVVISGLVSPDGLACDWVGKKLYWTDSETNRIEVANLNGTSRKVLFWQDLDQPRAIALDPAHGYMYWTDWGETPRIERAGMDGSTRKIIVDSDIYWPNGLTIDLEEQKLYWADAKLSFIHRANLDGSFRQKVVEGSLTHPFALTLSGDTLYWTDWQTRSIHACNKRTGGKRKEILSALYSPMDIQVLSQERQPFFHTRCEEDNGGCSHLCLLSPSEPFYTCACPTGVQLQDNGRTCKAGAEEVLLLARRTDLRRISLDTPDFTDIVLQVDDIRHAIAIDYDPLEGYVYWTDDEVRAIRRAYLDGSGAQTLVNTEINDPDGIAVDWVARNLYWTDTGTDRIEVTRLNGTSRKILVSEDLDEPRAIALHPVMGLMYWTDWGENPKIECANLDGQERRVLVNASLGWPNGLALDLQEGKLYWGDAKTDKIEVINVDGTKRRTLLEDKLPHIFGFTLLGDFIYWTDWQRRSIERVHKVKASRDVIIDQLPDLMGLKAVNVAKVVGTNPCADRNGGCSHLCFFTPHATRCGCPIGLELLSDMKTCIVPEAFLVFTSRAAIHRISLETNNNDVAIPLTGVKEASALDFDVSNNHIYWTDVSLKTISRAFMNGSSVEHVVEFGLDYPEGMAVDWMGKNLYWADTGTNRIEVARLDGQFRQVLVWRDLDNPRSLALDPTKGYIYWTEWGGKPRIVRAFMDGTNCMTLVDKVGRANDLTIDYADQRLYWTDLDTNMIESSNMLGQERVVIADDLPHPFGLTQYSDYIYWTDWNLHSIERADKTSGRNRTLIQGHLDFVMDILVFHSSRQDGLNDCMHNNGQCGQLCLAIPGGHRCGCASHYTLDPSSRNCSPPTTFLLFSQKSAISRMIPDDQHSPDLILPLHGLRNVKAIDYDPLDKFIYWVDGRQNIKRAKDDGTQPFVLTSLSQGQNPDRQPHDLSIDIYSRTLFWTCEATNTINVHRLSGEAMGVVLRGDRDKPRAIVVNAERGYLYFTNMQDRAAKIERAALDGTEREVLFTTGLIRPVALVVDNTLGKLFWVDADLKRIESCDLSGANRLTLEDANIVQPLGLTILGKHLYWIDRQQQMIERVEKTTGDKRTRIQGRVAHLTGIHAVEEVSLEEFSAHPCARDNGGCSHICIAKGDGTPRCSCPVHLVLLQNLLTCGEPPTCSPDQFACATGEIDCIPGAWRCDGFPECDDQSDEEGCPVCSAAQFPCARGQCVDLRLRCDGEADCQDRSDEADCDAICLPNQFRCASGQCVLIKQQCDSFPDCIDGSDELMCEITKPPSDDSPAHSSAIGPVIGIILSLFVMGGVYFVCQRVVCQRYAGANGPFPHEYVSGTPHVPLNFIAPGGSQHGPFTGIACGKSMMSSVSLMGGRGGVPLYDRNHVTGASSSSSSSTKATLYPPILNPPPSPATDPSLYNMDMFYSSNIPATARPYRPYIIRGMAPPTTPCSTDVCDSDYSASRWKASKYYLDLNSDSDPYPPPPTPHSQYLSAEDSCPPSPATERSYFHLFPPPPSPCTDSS
UniProt P01137, residues 279-390: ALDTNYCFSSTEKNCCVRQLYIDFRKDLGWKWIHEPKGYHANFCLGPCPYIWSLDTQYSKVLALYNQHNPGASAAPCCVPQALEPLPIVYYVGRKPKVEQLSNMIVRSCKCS

The labels stand for the following.
T1: CD151 (human (endogenous in HT29)) (UniProt P48509)
T1 sequence: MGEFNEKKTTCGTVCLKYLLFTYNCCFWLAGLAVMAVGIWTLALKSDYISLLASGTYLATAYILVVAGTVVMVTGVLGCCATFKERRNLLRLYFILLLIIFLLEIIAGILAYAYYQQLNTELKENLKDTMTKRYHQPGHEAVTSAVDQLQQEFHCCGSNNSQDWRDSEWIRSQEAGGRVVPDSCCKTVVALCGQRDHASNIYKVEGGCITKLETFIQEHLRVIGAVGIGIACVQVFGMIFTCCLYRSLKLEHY

B1: leucine-rich repeat-containing G-protein coupled receptor 5 (LGR5) (receptor, UniProt O75473 22-907)
chain: GSSPRSGVLLRGCPTHCHCEPDGRMLLRVDCSDLGLSELPSNLSVFTSYLDLSMNNISQLLPNPLPSLRFLEELRLAGNALTYIPKGAFTGLYSLKVLMLQNNQLRHVPTEALQNLRSLQSLRLDANHISYVPPSCFSGLHSLRHLWLDDNALTEIPVQAFRSLSALQAMTLALNKIHHIPDYAFGNLSSLVVLHLHNNRIHSLGKKCFDGLHSLETLDLNYNNLDEFPTAIRTLSNLKELGFHSNNIRSIPEKAFVGNPSLITIHFYDNPIQFVGRSAFQHLPELRTLTLNGASQITEFPDLTGTANLESLTLTGAQISSLPQTVCNQLPNLQVLDLSYNLLEDLPSFSVCQKLQKIDLRHNEIYEIKVDTFQQLLSLRSLNLAWNKIAIIHPNAFSTLPSLIKLDLSSNLLSSFPITGLHGLTHLKLTGNHALQSLISSENFPELKVIEMPYAYQCCAFGVCENAYKISNQWNKGDNSSMDDLHKKDAGMFQAQDERDLEDFLLDFEEDLKALHSVQCSPSPGPFKPCEHLLDGWLIRIGVWTIAVLALTCNALVTSTVFRSPLYISPIKLLIGVIAAVNMLTGVSSAVLAGVDAFTFGSFARHGAWWENGVGCHVIGFLSIFASESSVFLLTLAALERGFSVKYSAKFETKAPFSSLKVIILLCALLALTMAAVPLLGGSKYGASPLCLPLPFGEPSTMGYMVALILLNSLCFLMMTIAYTKLYCNLDKGDLENIWDCSMVKHIALLLFTNCILNCPVAFLSFSSLINLTFISPEVIKFILLVVVPLPACLNPLLYILFNPHFKEDLVSLRKQTYVWTRSKHPSLMSINSDDVEKQSCDSTQALVTFTSSSITYDLPPSSVPSPAYPVTESCHLSSVAFVPCL

No constants are given. Whether binding was seen depends on the method and setting. Binding seen in cells or lysates may run through a third protein. A yes stands for co-enrichment or nearness to the bait. Other partners may have been found.

One assay has as its target T1, CD151 (human (endogenous in HT29)). In words: affinity purification with mass spectrometry; HT29 whole cell extract (25 mM Tris, 150 mM NaCl, 1 mM EDTA, 1% NP-40, 5% glycerol, pH 7.4) immunoprecipitated with anti-CD151 antibody or control normal mouse IgG plus protein A Sepharose overnight at 4 °C; gel bands digested and analysed by mass spectrometry.
Consider CTNB1 (from UniProt P35222 1-781), for which the binding entry is “binds”.

As to TP53BP1 (from UniProt Q12888 1-1972), the binding entry is “binds”.

Turning to “carcinoembryonic antigen-related cell adhesion molecule 6 (CEACAM6) (from UniProt P40199 35-320)”, the binding entry is “binds”.

Regarding “low-density lipoprotein receptor-related protein (LRP) 5 (LRP5) (from UniProt O75197 32-1615)”, the binding result is “binds”.

As to “transforming growth factor β1 (TGFβ1) (from UniProt P01137 279-390)”, the binding result is on record as “binds”.

For another assay the target is unchanged. Described as above. This is another data set of the same source.
In the case of B1, the binding entry was “binds”.
